Test system: primary AML samples
Assay: HLA class I ligandome analysis (W6/32 immunoaffinity purification, LC-MS/MS) of primary AML samples
Design: species or system human
Settings: for Number of positive AMLs: HLA class I ligandome, AML patients (n=15), count for the HLA ligand (LiTAP) or, on protein lines, for the source protein (LiTAA); for Number of positive AMLs [rep. frequency]: representation frequency of the source protein (LiTAA) in AML patients (n=15)

Row | Molecule | Number of positive AMLs | Number of positive AMLs [rep. frequency]
1 | EEF2K (protein, UniProt O00418 2-725, looked up) Eukaryotic elongation factor …: ADEDLIFRLEGVDGGQSPRAGHDGDSDGDSDDEEGYFICPITDDPSSNQNVNSKVNKYYSNLTKSERYSSSGSPANSFHFKEAWKHAIQKAKHMPDPWAEFHLEDIATERATRHRYNAVTGEWLDDEVLIKMASQPFGRGAMRECFRTKKLSNFLHAQQWKGASNYVAKRYIEPVDRDVYFEDVRLQMEAKLWGEEYNRHKPPKQVDIMQMCIIELKDRPGKPLFHLEHYIEGKYIKYNSNSGFVRDDNIRLTPQAFSHFTFERSGHQLIVVDIQGVGDLYTDPQIHTETGTDFGDGNLGVRGMALFFYSHACNRICESMGLAPFDLSPRERDAVNQNTKLLQSAKTILRGTEEKCGSPQVRTLSGSRPPLLRPLSENSGDENMSDVTFDSLPSSPSSATPHSQKLDHLHWPVFSDLDNMASRDHDHLDNHRESENSGDSGYPSEKRGELDDPEPREHGHSYSNRKYESDEDSLGSSGRVCVEKWNLLNSSRLHLPRASAVALEVQRLNALDLEKKIGKSILGKVHLAMVRYHEGGRFCEKGEEWDQESAVFHLEHAANLGELEAIVGLGLMYSQLPHHILADVSLKETEENKTKGFDYLLKAAEAGDRQSMILVARAFDSGQNLSPDRCQDWLEALHWYNTALEMTDCDEGGEYDGMQDEPRYMMLAREAEMLFTGGYGLEKDPQRSGDLYTQAAEAAMEAMKGRLANQYYQKAEEAWAQMEE | 3 | [20.0%]
2 | TMEM194A (protein, UniProt O14524 44-444, looked up) Nuclear envelope integral …: ETDVNVVMLQESQVCEKRASQQFCYTNVLIPKWHDIWTRIQIRVNSSRLVRVTQVENEEKLKELEQFSIWNFFSSFLKEKLNDTYVNVGLYSTKTCLKVEIIEKDTKYSVIVIRRFDPKLFLVFLLGLMLFFCGDLLSRSQIFYYSTGMTVGIVASLLIIIFILSKFMPKKSPIYVILVGGWSFSLYLIQLVFKNLQEIWRCYWQYLLSYVLTVGFMSFAVCYKYGPLENERSINLLTWTLQLMGLCFMYSGIQIPHIALAIIIIALCTKNLEHPIQWLYITCRKVCKGAEKPVPPRLLTEEEYRIQGEVETRKALEELREFCNSPDCSAWKTVSRIQSPKRFADFVEGSSHLTPNEVSVHEQEYGLGSIIAQDEIYEEASSEEEDSYSRCPAITQNNFLT | 3 | [20.0%]
3 | SLC12A6 (protein, UniProt Q9UHW9 1-1150, looked up) Solute carrier family 12 …: MHPPETTTKMASVRFMVTPTKIDDIPGLSDTSPDLSSRSSSRVRFSSRESVPETSRSEPMSEMSGATTSLATVALDPPSDRTSHPQDVIEDLSQNSITGEHSQLLDDGHKKARNAYLNNSNYEEGDEYFDKNLALFEEEMDTRPKVSSLLNRMANYTNLTQGAKEHEEAENITEGKKKPTKTPQMGTFMGVYLPCLQNIFGVILFLRLTWVVGTAGVLQAFAIVLICCCCTMLTAISMSAIATNGVVPAGGSYFMISRALGPEFGGAVGLCFYLGTTFAAAMYILGAIEIFLVYIVPRAAIFHSDDALKESAAMLNNMRVYGTAFLVLMVLVVFIGVRYVNKFASLFLACVIVSILAIYAGAIKSSFAPPHFPVCMLGNRTLSSRHIDVCSKTKEINNMTVPSKLWGFFCNSSQFFNATCDEYFVHNNVTSIQGIPGLASGIITENLWSNYLPKGEIIEKPSAKSSDVLGSLNHEYVLVDITTSFTLLVGIFFPSVTGIMAGSNRSGDLKDAQKSIPIGTILAILTTSFVYLSNVVLFGACIEGVVLRDKFGDAVKGNLVVGTLSWPSPWVIVIGSFFSTCGAGLQSLTGAPRLLQAIAKDNIIPFLRVFGHSKANGEPTWALLLTAAIAELGILIASLDLVAPILSMFFLMCYLFVNLACALQTLLRTPNWRPRFRYYHWALSFMGMSICLALMFISSWYYAIVAMVIAGMIYKYIEYQGAEKEWGDGIRGLSLSAARFALLRLEEGPPHTKNWRPQLLVLLKLDEDLHVKHPRLLTFASQLKAGKGLTIVGSVIVGNFLENYGEALAAEQTIKHLMEAEKVKGFCQLVVAAKLREGISHLIQSCGLGGMKHNTVVMGWPNGWRQSEDARAWKTFIGTVRVTTAAHLALLVAKNISFFPSNVEQFSEGNIDVWWIVHDGGMLMLLPFLLKQHKVWRKCSIRIFTVAQLEDNSIQMKKDLATFLYHLRIEAEVEVVEMHDSDISAYTYERTLMMEQRSQMLRHMRLSKTERDREAQLVKDRNSMLRLTSIGSDEDEETETYQEKVHMTWTKDKYMASRGQKAKSMEGFQDLLNMRPDQSNVRRMHTAVKLNEVIVNKSHEAKLVLLNMPGPPRNPEGDENYMEFLEVLTEGLERVLLVRGGGSEVITIYS | 4 | [26.7%]
4 | CPQ (protein, UniProt Q9Y646 45-472, looked up) Carboxypeptidase Q: DVAKAIINLAVYGKAQNRSYERLALLVDTVGPRLSGSKNLEKAIQIMYQNLQQDGLEKVHLEPVRIPHWERGEESAVMLEPRIHKIAILGLGSSIGTPPEGITAEVLVVTSFDELQRRASEARGKIVVYNQPYINYSRTVQYRTQGAVEAAKVGALASLIRSVASFSIYSPHTGIQEYQDGVPKIPTACITVEDAEMMSRMASHGIKIVIQLKMGAKTYPDTDSFNTVAEITGSKYPEQVVLVSGHLDSWDVGQGAMDDGGGAFISWEALSLIKDLGLRPKRTLRLVLWTAEEQGGVGAFQYYQLHKVNISNYSLVMESDAGTFLPTGLQFTGSEKARAIMEEVMSLLQPLNITQVLSHGEGTDINFWIQAGVPGASLLDDLYKYFFFHHSHGDTMTVMDPKQMNVAAAVWAVVSYVVADMEEMLPRS | 6 | [40.0%]
5 | CCS (protein, UniProt O14618 1-274, looked up) Copper chaperone for …: MASDSGNQGTLCTLEFAVQMTCQSCVDAVRKSLQGVAGVQDVEVHLEDQMVLVHTTLPSQEVQALLEGTGRQAVLKGMGSGQLQNLGAAVAILGGPGTVQGVVRFLQLTPERCLIEGTIDGLEPGLHGLHVHQYGDLTNNCNSCGNHFNPDGASHGGPQDSDRHRGDLGNVRADADGRAIFRMEDEQLKVWDVIGRSLIIDEGEDDLGRGGHPLSKITGNSGERLACGIIARSAGLFQNPKQICSCDGLTIWEERGRPIAGKGRKESAQPPAHL | 3 | [20.0%]
6 | DOLK (protein, UniProt Q9UPQ8 1-538, looked up) Dolichol kinase: MTRECPSPAPGPGAPLSGSVLAEAAVVFAVVLSIHATVWDRYSWCAVALAVQAFYVQYKWDRLLQQGSAVFQFRMSANSGLLPASMVMPLLGLVMKERCQTAGNPFFERFGIVVAATGMAVALFSSVLALGITRPVPTNTCVILGLAGGVIIYIMKHSLSVGEVIEVLEVLLIFVYLNMILLYLLPRCFTPGEALLVLGGISFVLNQLIKRSLTLVESQGDPVDFFLLVVVVGMVLMGIFFSTLFVFMDSGTWASSIFFHLMTCVLSLGVVLPWLHRLIRRNPLLWLLQFLFQTDTRIYLLAYWSLLATLACLVVLYQNAKRSSSESKKHQAPTIARKYFHLIVVATYIPGIIFDRPLLYVAATVCLAVFIFLEYVRYFRIKPLGHTLRSFLSLFLDERDSGPLILTHIYLLLGMSLPIWLIPRPCTQKGSLGGARALVPYAGVLAVGVGDTVASIFGSTMGEIRWPGTKKTFEGTMTSIFAQIISVALILIFDSGVDLNYSYAWILGSISTVSLLEAYTTQIDNLLLPLYLLILLMA | 4 | [26.7%]
7 | LYRM1 (protein, UniProt O43325 1-122, looked up) LYR motif-containing protein 1: MTTATRQEVLGLYRSIFRLARKWQATSGQMEDTIKEKQYILNEARTLFRKNKNLTDTDLIKQCIDECTARIEIGLHYKIPYPRPIHLPPMGLTPLRGRGLRSQEKLRKLSKPVYLRSHDEVS | 3 | [20.0%]
